These are yes or no findings as the source states them, for the method shown. For part of these data: In cells and extracts the contact can be indirect. Some entries that bind do so weakly or less than the wild type. Tags and fused reporters may be left off the sequences shown.
Key:
Myc-CAP2 [1] = molecular target: T1, Myc-CAP2 (UniProt Q9CYT6); experiment: proximity ligation
T1 sequence: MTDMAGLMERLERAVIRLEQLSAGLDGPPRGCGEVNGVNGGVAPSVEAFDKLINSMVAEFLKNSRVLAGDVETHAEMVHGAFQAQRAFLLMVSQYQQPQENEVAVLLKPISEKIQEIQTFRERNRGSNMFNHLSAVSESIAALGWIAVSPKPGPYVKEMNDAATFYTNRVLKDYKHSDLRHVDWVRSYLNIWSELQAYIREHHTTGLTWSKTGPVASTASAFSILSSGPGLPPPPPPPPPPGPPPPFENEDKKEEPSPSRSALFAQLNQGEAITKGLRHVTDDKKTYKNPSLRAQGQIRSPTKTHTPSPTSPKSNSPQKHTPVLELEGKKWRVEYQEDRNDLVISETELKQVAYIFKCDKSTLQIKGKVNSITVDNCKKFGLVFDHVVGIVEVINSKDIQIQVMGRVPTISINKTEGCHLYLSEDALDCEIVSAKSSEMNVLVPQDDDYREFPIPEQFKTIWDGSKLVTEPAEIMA

Myc-(C32G)CAP2 [2] = molecular target: T2, Myc-(C32G)CAP2 (UniProt Q9CYT6); experiment: proximity ligation
T2 sequence: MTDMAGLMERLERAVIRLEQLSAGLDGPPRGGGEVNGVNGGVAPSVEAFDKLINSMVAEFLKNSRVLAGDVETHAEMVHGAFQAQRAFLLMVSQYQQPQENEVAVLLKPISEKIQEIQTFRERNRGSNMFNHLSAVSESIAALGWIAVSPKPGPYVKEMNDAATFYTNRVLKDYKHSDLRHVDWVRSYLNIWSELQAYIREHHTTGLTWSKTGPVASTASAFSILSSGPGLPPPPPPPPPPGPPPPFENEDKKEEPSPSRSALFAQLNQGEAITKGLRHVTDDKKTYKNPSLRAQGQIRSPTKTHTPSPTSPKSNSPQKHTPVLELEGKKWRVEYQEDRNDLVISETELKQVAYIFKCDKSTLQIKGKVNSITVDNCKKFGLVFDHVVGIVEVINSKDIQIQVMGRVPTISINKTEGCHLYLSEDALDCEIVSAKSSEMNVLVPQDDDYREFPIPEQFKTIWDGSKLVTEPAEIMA

Myc-CAP2(165-476) [3] = molecular target: T3, Myc-CAP2(165-476) (UniProt Q9CYT6); experiment: co-IP
T3 sequence: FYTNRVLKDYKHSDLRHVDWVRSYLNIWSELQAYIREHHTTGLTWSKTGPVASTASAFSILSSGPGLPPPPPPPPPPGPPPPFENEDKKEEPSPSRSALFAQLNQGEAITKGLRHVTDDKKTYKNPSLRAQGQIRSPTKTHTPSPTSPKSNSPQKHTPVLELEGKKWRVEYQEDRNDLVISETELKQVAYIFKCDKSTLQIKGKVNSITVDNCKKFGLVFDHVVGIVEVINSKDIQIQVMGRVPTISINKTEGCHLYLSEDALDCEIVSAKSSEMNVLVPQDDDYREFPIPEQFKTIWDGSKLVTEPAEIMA

Myc-CAP2 [4] = molecular target: T1, Myc-CAP2; experiment: co-IP
Myc-CAP2(165-476) [5] = molecular target: T3, Myc-CAP2(165-476); experiment: non-reducing SDS-PAGE with Western blot
Myc-(C32G)CAP2 [6] = molecular target: T2, Myc-(C32G)CAP2; experiment: non-reducing SDS-PAGE with Western blot
Streptag-(C32G)CAP2 = Streptag-(C32G)CAP2 (UniProt Q9CYT6); experiment: non-reducing SDS-PAGE with Western blot

B1: EGFP-CAP2 (protein, UniProt Q9CYT6 1-476)
chain: MTDMAGLMERLERAVIRLEQLSAGLDGPPRGCGEVNGVNGGVAPSVEAFDKLINSMVAEFLKNSRVLAGDVETHAEMVHGAFQAQRAFLLMVSQYQQPQENEVAVLLKPISEKIQEIQTFRERNRGSNMFNHLSAVSESIAALGWIAVSPKPGPYVKEMNDAATFYTNRVLKDYKHSDLRHVDWVRSYLNIWSELQAYIREHHTTGLTWSKTGPVASTASAFSILSSGPGLPPPPPPPPPPGPPPPFENEDKKEEPSPSRSALFAQLNQGEAITKGLRHVTDDKKTYKNPSLRAQGQIRSPTKTHTPSPTSPKSNSPQKHTPVLELEGKKWRVEYQEDRNDLVISETELKQVAYIFKCDKSTLQIKGKVNSITVDNCKKFGLVFDHVVGIVEVINSKDIQIQVMGRVPTISINKTEGCHLYLSEDALDCEIVSAKSSEMNVLVPQDDDYREFPIPEQFKTIWDGSKLVTEPAEIMA
With B1 the binding (Myc-CAP2 [1]) was “binds”, the binding (Myc-(C32G)CAP2 [2]) was “binds” and the binding (Myc-CAP2(165-476) [3]) was “binds”. For the same binder, the binding (Myc-CAP2 [4]) was “binds”.

B2: EGFP-CAP2(1-232) (domain or fragment, UniProt Q9CYT6 1-232)
chain: MTDMAGLMERLERAVIRLEQLSAGLDGPPRGCGEVNGVNGGVAPSVEAFDKLINSMVAEFLKNSRVLAGDVETHAEMVHGAFQAQRAFLLMVSQYQQPQENEVAVLLKPISEKIQEIQTFRERNRGSNMFNHLSAVSESIAALGWIAVSPKPGPYVKEMNDAATFYTNRVLKDYKHSDLRHVDWVRSYLNIWSELQAYIREHHTTGLTWSKTGPVASTASAFSILSSGPGLP
In the case of B2, the binding (Myc-CAP2 [4]) is reported as “binds”.

B3: EGFP-CAP2(1-311) (domain or fragment, UniProt Q9CYT6 1-311)
chain: MTDMAGLMERLERAVIRLEQLSAGLDGPPRGCGEVNGVNGGVAPSVEAFDKLINSMVAEFLKNSRVLAGDVETHAEMVHGAFQAQRAFLLMVSQYQQPQENEVAVLLKPISEKIQEIQTFRERNRGSNMFNHLSAVSESIAALGWIAVSPKPGPYVKEMNDAATFYTNRVLKDYKHSDLRHVDWVRSYLNIWSELQAYIREHHTTGLTWSKTGPVASTASAFSILSSGPGLPPPPPPPPPPGPPPPFENEDKKEEPSPSRSALFAQLNQGEAITKGLRHVTDDKKTYKNPSLRAQGQIRSPTKTHTPSPTS
In the case of B3, the binding (Myc-CAP2 [4]) is reported as “binds”.

B4: Myc-CAP2(165-476) (domain or fragment, UniProt Q9CYT6 165-476)
chain: FYTNRVLKDYKHSDLRHVDWVRSYLNIWSELQAYIREHHTTGLTWSKTGPVASTASAFSILSSGPGLPPPPPPPPPPGPPPPFENEDKKEEPSPSRSALFAQLNQGEAITKGLRHVTDDKKTYKNPSLRAQGQIRSPTKTHTPSPTSPKSNSPQKHTPVLELEGKKWRVEYQEDRNDLVISETELKQVAYIFKCDKSTLQIKGKVNSITVDNCKKFGLVFDHVVGIVEVINSKDIQIQVMGRVPTISINKTEGCHLYLSEDALDCEIVSAKSSEMNVLVPQDDDYREFPIPEQFKTIWDGSKLVTEPAEIMA
With B4 the binding (Myc-CAP2(165-476) [5]) was “no binding”.

B5: Myc-(C32G)CAP2 (protein, UniProt Q9CYT6 1-476)
chain: MTDMAGLMERLERAVIRLEQLSAGLDGPPRGGGEVNGVNGGVAPSVEAFDKLINSMVAEFLKNSRVLAGDVETHAEMVHGAFQAQRAFLLMVSQYQQPQENEVAVLLKPISEKIQEIQTFRERNRGSNMFNHLSAVSESIAALGWIAVSPKPGPYVKEMNDAATFYTNRVLKDYKHSDLRHVDWVRSYLNIWSELQAYIREHHTTGLTWSKTGPVASTASAFSILSSGPGLPPPPPPPPPPGPPPPFENEDKKEEPSPSRSALFAQLNQGEAITKGLRHVTDDKKTYKNPSLRAQGQIRSPTKTHTPSPTSPKSNSPQKHTPVLELEGKKWRVEYQEDRNDLVISETELKQVAYIFKCDKSTLQIKGKVNSITVDNCKKFGLVFDHVVGIVEVINSKDIQIQVMGRVPTISINKTEGCHLYLSEDALDCEIVSAKSSEMNVLVPQDDDYREFPIPEQFKTIWDGSKLVTEPAEIMA
In the case of B5, the binding (Myc-(C32G)CAP2 [6]) is reported as “no binding”.

B6: Streptag-(C32G)CAP2 (protein, UniProt Q9CYT6 1-476)
chain: MTDMAGLMERLERAVIRLEQLSAGLDGPPRGGGEVNGVNGGVAPSVEAFDKLINSMVAEFLKNSRVLAGDVETHAEMVHGAFQAQRAFLLMVSQYQQPQENEVAVLLKPISEKIQEIQTFRERNRGSNMFNHLSAVSESIAALGWIAVSPKPGPYVKEMNDAATFYTNRVLKDYKHSDLRHVDWVRSYLNIWSELQAYIREHHTTGLTWSKTGPVASTASAFSILSSGPGLPPPPPPPPPPGPPPPFENEDKKEEPSPSRSALFAQLNQGEAITKGLRHVTDDKKTYKNPSLRAQGQIRSPTKTHTPSPTSPKSNSPQKHTPVLELEGKKWRVEYQEDRNDLVISETELKQVAYIFKCDKSTLQIKGKVNSITVDNCKKFGLVFDHVVGIVEVINSKDIQIQVMGRVPTISINKTEGCHLYLSEDALDCEIVSAKSSEMNVLVPQDDDYREFPIPEQFKTIWDGSKLVTEPAEIMA
B6 was tested, and the binding (Streptag-(C32G)CAP2) was “no binding”.
